Results taken from article PMC7935258.
These are yes or no findings as the source states them, for the method shown. Binding seen in cells or lysates may run through a third protein. Some results given as binding are weak or reduced against the parent protein; the word gives no strength. Tags and fused reporters may be left off the sequences shown.

Target: T1, GST-tagged TPR2 (Arabidopsis) (UniProt Q9LRZ0)
T1 sequence: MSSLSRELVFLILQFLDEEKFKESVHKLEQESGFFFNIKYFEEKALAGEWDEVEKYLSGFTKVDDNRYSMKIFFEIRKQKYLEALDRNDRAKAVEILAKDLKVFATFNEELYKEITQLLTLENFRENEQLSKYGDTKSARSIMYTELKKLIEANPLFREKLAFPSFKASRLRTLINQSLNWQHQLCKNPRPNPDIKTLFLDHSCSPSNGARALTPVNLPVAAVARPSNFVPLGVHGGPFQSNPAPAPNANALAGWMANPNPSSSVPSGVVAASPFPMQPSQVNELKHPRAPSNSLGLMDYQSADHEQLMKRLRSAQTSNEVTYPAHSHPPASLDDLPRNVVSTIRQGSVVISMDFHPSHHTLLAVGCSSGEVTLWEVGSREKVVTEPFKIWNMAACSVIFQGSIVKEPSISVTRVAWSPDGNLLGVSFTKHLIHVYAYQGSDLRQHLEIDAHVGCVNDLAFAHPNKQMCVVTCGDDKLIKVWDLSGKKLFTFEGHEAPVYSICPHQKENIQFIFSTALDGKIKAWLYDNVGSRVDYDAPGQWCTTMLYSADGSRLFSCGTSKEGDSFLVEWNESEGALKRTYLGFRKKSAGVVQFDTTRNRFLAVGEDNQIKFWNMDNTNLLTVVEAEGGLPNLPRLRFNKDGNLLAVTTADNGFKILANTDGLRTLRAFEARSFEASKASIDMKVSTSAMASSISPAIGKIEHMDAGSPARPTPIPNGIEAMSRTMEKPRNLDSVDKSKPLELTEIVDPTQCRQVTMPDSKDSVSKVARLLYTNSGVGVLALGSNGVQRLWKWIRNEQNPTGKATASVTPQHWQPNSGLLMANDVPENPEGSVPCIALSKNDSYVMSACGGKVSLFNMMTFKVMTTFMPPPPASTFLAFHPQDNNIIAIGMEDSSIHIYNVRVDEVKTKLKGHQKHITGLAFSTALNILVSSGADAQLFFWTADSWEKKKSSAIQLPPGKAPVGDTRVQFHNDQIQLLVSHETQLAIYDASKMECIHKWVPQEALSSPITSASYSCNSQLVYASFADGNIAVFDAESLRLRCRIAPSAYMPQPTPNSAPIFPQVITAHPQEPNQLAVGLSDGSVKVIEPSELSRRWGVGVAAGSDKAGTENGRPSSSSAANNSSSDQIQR
Experiment: pull-down; GST-TPR2 or GST from E. coli extract bound to GST beads (4°C, 1.5 h), washed 3 times with PBS; soluble T7-SNC1-TIR extract added, 4°C, 1 h; washed with PBS; blot with anti-GST and anti-T7; only the target purified

B1: His-T7-SNC1 TIR (domain or fragment, UniProt O23530 1-182)
chain: MMDTSKDDDMEIASSSGSRRYDVFPSFRGEDVRDSFLSHLLKELRGKAITFIDDEIERSRSIGPELLSAIKESRIAIVIFSKNYASSTWCLNELVEIHKCYTNLNQMVIPIFFHVDASEVKKQTGEFGKVFEETCKAKSEDEKQSWKQALAAVAVMAGYDLRKWPSEAAMIEELAEDVLRKT
binding: binds
